Drawing on article PMC4237246, this text covers binding for 2 substances.

Amino acid sequences for entries named in this document (tags omitted).
UniProt P21796: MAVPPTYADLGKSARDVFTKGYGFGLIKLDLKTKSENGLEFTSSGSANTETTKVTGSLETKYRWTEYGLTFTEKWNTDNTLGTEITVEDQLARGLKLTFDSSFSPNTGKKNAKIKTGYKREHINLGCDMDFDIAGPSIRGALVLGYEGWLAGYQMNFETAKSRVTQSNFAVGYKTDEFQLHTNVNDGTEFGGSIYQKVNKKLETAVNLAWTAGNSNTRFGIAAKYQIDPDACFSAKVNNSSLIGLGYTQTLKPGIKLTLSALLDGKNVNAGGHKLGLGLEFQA
UniProt Q07820: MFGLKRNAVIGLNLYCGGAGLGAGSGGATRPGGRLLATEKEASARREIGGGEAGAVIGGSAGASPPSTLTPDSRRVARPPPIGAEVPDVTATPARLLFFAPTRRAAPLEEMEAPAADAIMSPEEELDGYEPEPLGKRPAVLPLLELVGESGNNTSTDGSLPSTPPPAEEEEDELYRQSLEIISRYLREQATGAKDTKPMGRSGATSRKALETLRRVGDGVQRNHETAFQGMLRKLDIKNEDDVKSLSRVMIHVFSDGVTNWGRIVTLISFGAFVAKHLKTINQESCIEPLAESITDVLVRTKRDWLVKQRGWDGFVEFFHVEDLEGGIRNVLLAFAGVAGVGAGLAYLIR

For test [1], the target named is GST-VDAC1 fusion protein (UniProt P21796). The experiment in a line: pull-down; GST-VDAC1, 2 or 3 bound to Glutathione Sepharose 4B, incubated with lysates of MEF overexpressing human Mcl-1; western blot for Mcl-1; only the target purified. A general note: A western blot detects proteins with antibodies after separation by electrophoresis.
The target in the next test is T1, GST-VDAC3 fusion protein (UniProt Q9Y277).
T1 sequence: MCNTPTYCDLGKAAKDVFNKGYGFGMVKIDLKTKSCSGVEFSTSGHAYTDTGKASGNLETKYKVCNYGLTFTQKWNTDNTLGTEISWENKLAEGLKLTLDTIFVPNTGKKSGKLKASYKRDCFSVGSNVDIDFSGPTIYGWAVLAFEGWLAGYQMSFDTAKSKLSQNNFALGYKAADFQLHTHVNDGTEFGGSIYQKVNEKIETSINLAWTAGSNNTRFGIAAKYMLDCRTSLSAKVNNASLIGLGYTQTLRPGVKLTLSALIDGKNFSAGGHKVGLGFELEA
The test is described as above.

Test [2] concerns the target GST-VDAC1 fusion protein (UniProt P21796). The experiment in a line: pull-down; GST-VDAC1 on Glutathione Sepharose 4B, MEF cell lysates pretreated with control or VDAC-based peptides (N-ter, L14-15); western blot for Mcl-1 and Bcl-xL; only the target purified.

No constants are given. Whether binding was seen depends on the method and setting. Binding seen in cells or lysates may run through a third protein. Some binding calls cover weakened binding; strength is not graded here. For some of these results: Sequences can lack the tags named with a protein.

For the substance “human Mcl-1 overexpressed in mouse embryonic fibroblasts (from UniProt Q07820 1-350)”, the binding entry with GST-VDAC1 fusion protein [1], with GST-VDAC3 fusion protein and with GST-VDAC1 fusion protein [2] was “binds” each time.
For the substance “Bcl-xL in MEF cell lysate (from UniProt Q64373-1 1-233)”, the binding result with GST-VDAC1 fusion protein [2] is given as “binds”.
